According to article PMC6769069:
These are yes or no findings as the source states them, for the method shown. Some binding calls cover weakened binding; strength is not graded here. Tags and fused reporters may be left off the sequences shown. Each block holds one binder with its values, some of them ahead of it.

Target: T1, HybD endoprotease fused with peptide T18 of adenylate cyclase (pT18-hybD) (Escherichia coli) (UniProt P37182)
T1 sequence: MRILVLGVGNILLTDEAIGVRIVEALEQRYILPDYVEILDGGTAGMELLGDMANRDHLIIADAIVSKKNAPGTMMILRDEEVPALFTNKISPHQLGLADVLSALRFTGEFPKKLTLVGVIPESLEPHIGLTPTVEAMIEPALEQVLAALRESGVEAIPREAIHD
Experiment: two-hybrid; bacterial two-hybrid (adenylate cyclase fragments T25 and T18) in E. coli BTH101; T25 at the N-terminus of the large subunit variants, T18 fused with HybD; anaerobic growth in TGYEP medium pH 6.5 at 30°C for 16 h; β-galactosidase activity according to Miller

- binding: no binding
B1: pro-HyaB, large subunit precursor of E. coli hydrogenase 1, fused to the T25 adenylate cyclase fragment (pT25-hyaB) (protein, UniProt P0ACD8 2-597)
chain: STQYETQGYTINNAGRRLVVDPITRIEGHMRCEVNINDQNVITNAVSCGTMFRGLEIILQGRDPRDAWAFVERICGVCTGVHALASVYAIEDAIGIKVPDNANIIRNIMLATLWCHDHLVHFYQLAGMDWIDVLDALKADPRKTSELAQSLSSWPKSSPGYFFDVQNRLKKFVEGGQLGIFRNGYWGHPQYKLPPEANLMGFAHYLEALDFQREIVKIHAVFGGKNPHPNWIVGGMPCAINIDESGAVGAVNMERLNLVQSIITRTADFINNVMIPDALAIGQFNKPWSEIGTGLSDKCVLSYGAFPDIANDFGEKSLLMPGGAVINGDFNNVLPVDLVDPQQVQEFVDHAWYRYPNDQVGRHPFDGITDPWYNPGDVKGSDTNIQQLNEQERYSWIKAPRWRGNAMEVGPLARTLIAYHKGDAATVESVDRMMSALNLPLSGIQSTLGRILCRAHEAQWAAGKLQYFFDKLMTNLKNGNLATASTEKWEPATWPTECRGVGFTEAPRGALGHWAAIRDGKIDLYQCVVPTTWNASPRDPKGQIGAYEAALMNTKMAIPEQPLEILRTLHSFDPCLACSTHVLGDDGSELISVQVR

- binding: binds
B2: pro-HybC^ST fused to peptide T25 of adenylate cyclase (pT25-hybC^ST) (protein, UniProt P0ACE0 2-567)
chain: SQRITIDPVTRIEGHLRIDCEIENGVVSKAWASGTMWRGMEEIVKNRDPRDAWMIVQRICGVCTTTHALSSVRAAESALNIDVPVNAQYIRNIILAAHTTHDHIVHFYQLSALDWVDITSALQADPTKASEMLKGVSTWHLNSPEEFTKVQNKIKDLVASGQLGIFANGYWGHPAMKLPPEVNLIAVAHYLQALECQRDANRVVALLGGKTPHIQNLAVGGVANPINLDGLGVLNLERLMYIKSFIDKLSDFVEQVYKVDTAVIAAFYPEWLTRGKGAVNYLSVPEFPTDSKNGSFLFPGGYIENADLSSYRPITSHSDEYLIKGIQESAKHSWYKDEAPQAPWEGTTIPAYDGWSDDGKYSWVKSPTFYGKTVEVGPLANMLVKLAAGRESTQNKLNEIVAIYQKLTGNTLEVAQLHSTLGRIIGRTVHCCELQDILQNQYSALITNIGKGDHTTFVKPNIPATGEFKGVGFLEAPRGMLSHWMVIKDGIISNYQAVVPSTWNSGPRNFNDDVGPYEQSLVGTPVADPNKPLEVVRTIHSFDPCMACSTHVVDADGNEVVSVKVL
